Data as given in publication PMC8640094, “Diaportones A–C: Three New Metabolites From Endophytic Fungus Diaporthe foeniculina BZM-15” (Frontiers in Chemistry, 2021).

Tested on: SF-268 (CNS cancer)
Experiment: MTT cytotoxicity assay, SF-268 cells
Format: cell-based, human
Details: IC50 for LX-2 cell line/IC50 for SF286 cell line
Procedure: The cytotoxicity of all compounds against three human tumor cell lines, SF-268 (CNS cancer), MCF-7 (breast cancer), and HepG2 (hepatoma cancer), and normal cell line LX-2 was tested using the MTT assay. Adriamycin was used as a positive control. All cells were seeded into 96-well plates at 5 × 10^4 cells/ml and incubated at 37°C under a 5% CO2 atmosphere for 24 h. Then, the tested compounds were added. After 72 h, MTT solution was added into each well, which was further incubated. The cell-free supernatant was removed and formazan crystals were subsequently dissolved in DMSO. Optical density (OD) was recorded at 490 nm on a microplate reader to calculate the IC50 values.

## CC(C)[C@@H](C)C=C[C@@H](C)[C@H]1CC[C@@]2(O)C3=CC(=O)C4=CC(=O)CC[C@]4(C)[C@H]3CC[C@]12C [compound 8, 14α-hydroxyergosta-4,7,22-triene-3,6-dione]
  SI Values (safety index): >5
